PubChem BioAssay AID1159584, Peter MacCallum Cancer Centre | 2016
Here is a random part of about 18,000 reagents tested. Not all columns of the deposit are shown. Not stated in the record: the amount of reagent, the time to read-out.

Aim: 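Genes whose loss is lethal only together with E-cadherin loss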 (primary screen)
System: human MCF10A breast epithelial cells, parental and CDH1-null
Reagents: siRNA against human genes
Measured: 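ATP luminescence (CellTiter-Glo) viability per line relative to mean mock wells over all plates, and the ratio of CDH1-null to parental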
Scale: CDH1-null / parental viability ratio: higher = CDH1-null cells survive relatively better than parental; CDH1-null viability vs mock: higher = more viable CDH1-null cells
Units: CDH1-null viability vs mock in fraction of mock

B3GNT7 | CDH1-null / parental viability ratio: 1.03; CDH1-null viability vs mock: 0.72
MBNL3 (muscleblind like splicing regulator 3) | CDH1-null / parental viability ratio: 1.51; CDH1-null viability vs mock: 0.83
LRRC15 (leucine rich repeat containing 15) | CDH1-null / parental viability ratio: 0.86; CDH1-null viability vs mock: 0.7
CLCN7 (Cl-/H+ antiporter 7) | CDH1-null / parental viability ratio: 1.92; CDH1-null viability vs mock: 0.94
TMEM74B (transmembrane protein 74B) | CDH1-null / parental viability ratio: 0.85; CDH1-null viability vs mock: 0.72
IL2RA (interleukin 2 receptor subunit alpha) | CDH1-null / parental viability ratio: 1.16; CDH1-null viability vs mock: 0.89
CINP (cyclin dependent kinase 2 interacting protein) | CDH1-null / parental viability ratio: 0.77; CDH1-null viability vs mock: 0.41
SHOC2 (SHOC2 leucine rich repeat scaffold protein) | CDH1-null / parental viability ratio: 1.47; CDH1-null viability vs mock: 0.94
ARL1 (ARF like GTPase 1) | CDH1-null / parental viability ratio: 0.98; CDH1-null viability vs mock: 0.86
DENR (density regulated re-initiation and release factor) | CDH1-null / parental viability ratio: 1.04; CDH1-null viability vs mock: 0.94
CBLN3 (cerebellin 3 precursor) | CDH1-null / parental viability ratio: 1.16; CDH1-null viability vs mock: 0.79
TBC1D15 (TBC1 domain family member 15) | CDH1-null / parental viability ratio: 0.92; CDH1-null viability vs mock: 0.73
CALR (calreticulin) | CDH1-null / parental viability ratio: 1.01; CDH1-null viability vs mock: 0.83
MED6 (mediator complex subunit 6) | CDH1-null / parental viability ratio: 1.83; CDH1-null viability vs mock: 0.55
MDH1 (malate dehydrogenase 1) | CDH1-null / parental viability ratio: 1.01; CDH1-null viability vs mock: 0.85
VBP1 (VHL binding protein 1) | CDH1-null / parental viability ratio: 0.96; CDH1-null viability vs mock: 1.07
SLC7A4 | CDH1-null / parental viability ratio: 0.87; CDH1-null viability vs mock: 0.61
TRO (trophinin) | CDH1-null / parental viability ratio: 1.24; CDH1-null viability vs mock: 0.67
SRY (sex determining region Y) | CDH1-null / parental viability ratio: 1.04; CDH1-null viability vs mock: 1.14
ZNF766 (zinc finger protein 766) | CDH1-null / parental viability ratio: 0.95; CDH1-null viability vs mock: 0.72
BRF1 (BRF1 general transcription factor IIIB subunit) | CDH1-null / parental viability ratio: 1.03; CDH1-null viability vs mock: 0.7
PPM1H (protein phosphatase, Mg2+/Mn2+ dependent 1H) | CDH1-null / parental viability ratio: 1.27; CDH1-null viability vs mock: 1.07
ARHGAP21 (Rho GTPase activating protein 21) | CDH1-null / parental viability ratio: 1.08; CDH1-null viability vs mock: 1.32
RPS6KC1 (ribosomal protein S6 kinase C1) | CDH1-null / parental viability ratio: 1.04; CDH1-null viability vs mock: 0.73
